In PubChem BioAssay AID720591 (Broad Institute, 2013):
Among all 1,200 compounds or so, about 60 (5%) were called active. About 1% were inconclusive and are not listed.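 Rule for the calls: active = Decreasing signal and fitted IC50 at most twice the top valid tested dose; inconclusive = Bad fit or a level curve showing 30 to 70% inhibition; inactive = the rest.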 This is one part of the list. Results with a measured potency or affinity are listed apart.

By UniProt entry, the sequences of proteins in these tests, tags left out. Where a name states a change or a piece, a line headed by the entry shows the natural chain unless it says otherwise.
UniProt Q9NXA8: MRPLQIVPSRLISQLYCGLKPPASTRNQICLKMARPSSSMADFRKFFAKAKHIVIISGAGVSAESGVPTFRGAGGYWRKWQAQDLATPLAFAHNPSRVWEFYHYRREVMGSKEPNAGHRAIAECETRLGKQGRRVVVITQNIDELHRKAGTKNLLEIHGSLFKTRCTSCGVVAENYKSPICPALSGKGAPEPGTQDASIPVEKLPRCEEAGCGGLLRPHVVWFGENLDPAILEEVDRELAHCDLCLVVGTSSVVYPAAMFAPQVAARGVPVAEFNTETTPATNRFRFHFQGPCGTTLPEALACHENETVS

Each compound was assayed against NAD-dependent protein deacylase sirtuin-5, mitochondrial (Homo sapiens) (UniProt Q9NXA8) (assay: SIRT5 desuccinylase inhibitors, dose response, biochemical, fluorescence imaging, cherry-pick, set 5 (AID 720591;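 note: 0% = median of neutral control wells and -100% = median of positive control wells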)). Conditions: Purified SirT5, succinyl-peptide AMC, trypsin-coupled fluorescence; at 15 µM (top of the series) unless noted.

Activity change, negative = inhibition, inactive:
O=C(c1cccc(F)c1)N1CCCC(C(=O)N2CCCCC2)C1 (centres undefined) -26.3%
O=C(Nc1ccccc1Cl)C1CC(=O)N(c2ccccc2)C1 (centres undefined) 10.1%
COc1ccc(Nc2c3c(nc4ccc(C)cc24)CCC3)cc1 2.04%
O=S1(=O)CC(N2CCN(CCO)CC2)CN1Cc1cn(Cc2cccc(C(F)(F)F)c2)nn1 (centres undefined) -10.6%
COCCCN1C(=O)C(CC(=O)NC(c2ccccc2)c2ccccc2)CC(C(=O)N2CCOCC2)=C1C (centres undefined) 47.8%
Cc1ccc(-c2ccc(CN3C(C)C(=O)N(Cc4cn(Cc5ccco5)nn4)CCS3(=O)=O)cc2)c(C)c1 (centres undefined) -8.96%
CCCCC(CC)C(=O)Oc1ccc(O)c(C(C)(C)C)c1 (centres undefined) 15.5%
Cc1ccc(S(=O)(=O)N(C)c2ccc(NS(C)(=O)=O)cc2)cc1 -2.72%
COc1ccc(S(=O)(=O)Nc2ccc3c(c2)C(=O)N([C@H](C)CO)C[C@@H](C)[C@@H](CN(C)S(=O)(=O)c2ccc(Cl)cc2)O3)cc1 9.78%
Cc1ccnc(NS(=O)(=O)c2ccc(NC(=O)Cc3ccc(F)cc3)cc2)n1 18%
COC1OC(c2ccccc2)=C(c2ccc(C(N)=O)cc2)c2ccc(F)cc21 (centres undefined) -11.9%
CCc1ccc(-c2cc(C)no2)cc1S(=O)(=O)Nc1cc(C)ccn1 -34%
C=CCNC(=O)COc1c(C)ccc(C)c1C 2.07%
COc1ccc([C@H]2N[C@]3(CCCN(Cc4ccc(C)cc4)C3=O)[C@H]3C(=O)N(C)C(=O)[C@@H]23)cc1 -11.2%
CCCCCN(C(=O)CCC(=O)OCC(=O)c1ccc(CCC)cc1)c1c(N)n(CCCC)c(=O)[nH]c1=O -27.7%
CCN(c1ccccc1)S(=O)(=O)c1ccc2[nH]c(=O)[nH]c2c1 5.81%
COCc1nc2ccccc2n1Cc1ccccc1C 22.3%
Cc1ccc(NC(=O)C2CCN(C(=O)c3ccco3)CC2)cc1 12%
Cc1csc(NC(=O)CSc2sc3c(O)cc(=O)[nH]c3c2C#N)n1 -33.2%
O=C(Nc1ccccc1Cl)c1sccc1-c1ccccc1 16.6%
Cc1ccc(-c2csc(NC(=O)Cn3[nH]c(=O)c4ccccc4c3=O)n2)cc1 -13.9%
C=CC[C@@H](CC(=O)N[C@H](CO)Cc1ccccc1)C(=O)N[C@@H](COC(=O)[C@@H](CC=C)CC(=O)OC(C)(C)C)Cc1ccccc1 25.4%
Cc1cc(C)c2c(CN3CCOCC3)cc(=O)oc2c1 2.2%
O=C1Nc2ccccc2C(=O)N2[C@H](c3ccc(F)cc3)[C@@H]3C(=O)N(Cc4ccccc4)C(=O)[C@@H]3[C@H]12 -12.5%
Cc1cccc(C(=O)NCc2nnc(SC(C)C(=O)Nc3nnc(C)s3)n2C)c1 (centres undefined) -0.024%
Cc1cc(C)cc(Cn2cc(CN3CC(N4CCN(CCO)CC4)CS3(=O)=O)nn2)c1 (centres undefined) -11.8%
Cc1ccc(CC(=O)Nc2ccc(C(=O)N3CCCCC3)cc2)cc1 -4.13%
CCCCN1CC(=O)N2[C@H](c3ccc(OC)cc3)[C@@H]3C(=O)N(CC)C(=O)[C@@H]3[C@]2(Cc2ccccc2)C1=O -22.5%
Cc1noc(C)c1S(=O)(=O)N(C)C[C@H]1Oc2ccc(NC(=O)C3CC3)cc2C(=O)N([C@H](C)CO)C[C@@H]1C -13.5%
COc1ccc(CN2CCCC(N3CCN(c4cccc(Cl)c4)CC3)C2)cc1OC (centres undefined) -1.42%
Cc1cccc2nc(CSc3ccc(Cl)cc3)cn12 36.8%
c1nc(N2CCOCC2)c2c3c(sc2n1)CCCC3 -20.7%
O=C(OCC(=O)N1CCCC1)c1cc(Br)ccc1Cl -18.6%
CCOC(=O)Cn1cc(C#N)c2cccc(CC)c21 1.89%
CCc1ccc(CN(C)CCc2ccccn2)cc1 4.63%
O=C(O)CCCC(=O)N1CCc2cc(S(=O)(=O)N3CCc4ccccc43)ccc21 -51.6%
CC1c2nc3ccccc3n2C(CC(=O)NCCCN2CCOCC2)C(=O)N1Cc1ccccc1 (centres undefined) 1.29%
COc1cccc(OCC(=O)Nc2ccccc2C(N)=O)c1 -30%
Clc1ccccc1OCCNc1nc(NCC2CC2)nc2ccsc12 -1.11%
CCCCc1c(-c2ccccc2F)ncn1CCc1ccccc1OC 13.7%
COCOCCn1cc(CN2CCS(=O)(=O)N(Cc3ccc(-c4ccc(OC)cc4)cc3)C(CC(C)C)C2=O)nn1 (centres undefined) 15.5%
CC(C)N1CCN(Cc2cc(F)ccc2-n2cccn2)CC1CCO (centres undefined) 7.78%
COC(=O)C(CC(=O)CNC(=O)c1ccccc1)NC(=O)c1ccccc1 (centres undefined) 5.64%
CC(C)C(NS(=O)(=O)c1ccc2c(c1)Cc1cc(S(=O)(=O)NC(C(=O)O)C(C)C)ccc1-2)C(=O)O (centres undefined) -25.8%
COc1ccc(-c2noc(CN(C)C(=O)c3ccco3)n2)cc1 -8.92%
COc1ccc(CCNS(=O)(=O)c2cc3c4c(c2)C(C)C(=O)N4CCC3)cc1OC (centres undefined) -3.5%
O=C(CCS(=O)(=O)Cc1ccccc1)Nc1nncs1 -1.31%
COc1ccc(C)cc1N(C)C(=O)Cc1c(C(=O)O)n(C)c2ccccc12 -31.2%
COCCCNc1nc2ccccc2nc1NS(=O)(=O)c1cccc(C)c1 0.837%
CCCc1cc(=O)oc2cc(C)cc(OCC(=O)NCC(O)c3ccccc3)c12 (centres undefined) -7.43%
Cc1ccnc(NC(=O)CCC(=O)N(Cc2ccco2)C(C(=O)NC(C)C)c2ccc(F)cc2)c1 (centres undefined) -23.7%
COc1ccccc1CNCC(=O)Nc1ccc(C#N)cc1 -0.398%
CN(C)CCCNC(=O)c1cc(C(=O)c2ccccc2F)c[nH]1 1.08%
O=C(Cc1ccc(F)cc1)OCC(=O)N1CCN(S(=O)(=O)c2ccc(Cl)cc2)CC1 -2.77%

Compounds shown so far with an aryl thioether with sulfur outside any ring (three):
Activity change, negative = inhibition, inactive:
Cc1csc(NC(=O)CSc2sc3c(O)cc(=O)[nH]c3c2C#N)n1 -33.2%
Cc1cccc(C(=O)NCc2nnc(SC(C)C(=O)Nc3nnc(C)s3)n2C)c1 (centres undefined) -0.024%
Cc1cccc2nc(CSc3ccc(Cl)cc3)cn12 36.8%
